In PMC12143136 one finds binding data, which are given here for four molecules.

Chains of the proteins cited; added tags and fusions are not shown. Residues count along the entry.
UniProt P13612, residues 34-1032: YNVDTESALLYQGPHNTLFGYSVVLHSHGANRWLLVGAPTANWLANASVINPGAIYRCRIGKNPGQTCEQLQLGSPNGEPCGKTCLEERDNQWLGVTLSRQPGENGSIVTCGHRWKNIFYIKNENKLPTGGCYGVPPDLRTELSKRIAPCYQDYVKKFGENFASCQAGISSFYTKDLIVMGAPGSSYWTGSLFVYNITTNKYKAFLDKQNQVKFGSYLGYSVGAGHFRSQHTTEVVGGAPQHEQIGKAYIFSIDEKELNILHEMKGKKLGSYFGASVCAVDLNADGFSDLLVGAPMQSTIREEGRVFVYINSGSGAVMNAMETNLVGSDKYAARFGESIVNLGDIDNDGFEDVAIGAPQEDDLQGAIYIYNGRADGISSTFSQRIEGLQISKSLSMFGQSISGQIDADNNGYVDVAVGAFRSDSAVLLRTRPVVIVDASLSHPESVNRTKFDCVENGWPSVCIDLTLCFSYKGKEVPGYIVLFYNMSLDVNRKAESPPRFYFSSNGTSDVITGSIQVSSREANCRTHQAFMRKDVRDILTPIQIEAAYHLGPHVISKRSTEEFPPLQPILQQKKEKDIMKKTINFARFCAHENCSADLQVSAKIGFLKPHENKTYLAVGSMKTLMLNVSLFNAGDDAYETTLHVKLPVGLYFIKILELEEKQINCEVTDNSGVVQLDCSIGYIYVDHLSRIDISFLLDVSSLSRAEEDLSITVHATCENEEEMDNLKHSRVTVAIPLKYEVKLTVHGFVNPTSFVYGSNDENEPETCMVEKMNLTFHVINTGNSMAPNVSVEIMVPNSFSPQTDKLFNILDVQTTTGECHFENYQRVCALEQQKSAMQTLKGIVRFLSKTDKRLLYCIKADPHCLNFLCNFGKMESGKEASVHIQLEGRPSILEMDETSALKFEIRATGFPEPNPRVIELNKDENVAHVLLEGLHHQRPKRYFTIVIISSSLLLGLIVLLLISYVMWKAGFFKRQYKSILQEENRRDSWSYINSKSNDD

In one assay the target is T1, CD37-FLAG (UniProt P11049).
T1 sequence: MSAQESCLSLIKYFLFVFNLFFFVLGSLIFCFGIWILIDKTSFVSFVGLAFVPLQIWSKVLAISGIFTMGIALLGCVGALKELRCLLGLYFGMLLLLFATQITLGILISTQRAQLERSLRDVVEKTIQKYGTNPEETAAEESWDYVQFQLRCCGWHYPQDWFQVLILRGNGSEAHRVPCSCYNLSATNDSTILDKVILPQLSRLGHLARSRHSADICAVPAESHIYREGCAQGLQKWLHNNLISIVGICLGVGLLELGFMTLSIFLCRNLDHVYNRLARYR
Description: co-IP; exogenous CD37-FLAG, ITGA4-HIS and ITGB7-HIS from plasmids; which tag was precipitated is not stated.

Another assay deals with T2, CD37 (UniProt P11049).
T2 sequence: T1 sequence
The assay can be described thus: co-IP; endogenous proteins; precipitated by anti-CD37 antibodies conjugated with protein A + G agarose; ITGA4 and ITGB7 verified in the immunoprecipitation samples.

These are yes or no findings as the source states them, for the method shown. In cells and extracts the contact can be indirect. Some binding calls cover weakened binding; strength is not graded here. For some of these results: Tags and fused reporters may be left off the sequences shown.

As to ITGA4-HIS (from UniProt P13612 34-1032), in the assay with CD37-FLAG, the binding result was “binds”.

In the case of ITGA4 (from UniProt P13612 34-1032), the binding entry with CD37 is “binds”.

B1: integrin beta 7 (ITGB7) (protein, UniProt P26010 20-798)
chain: ELDAKIPSTGDATEWRNPHLSMLGSCQPAPSCQKCILSHPSCAWCKQLNFTASGEAEARRCARREELLARGCPLEELEEPRGQQEVLQDQPLSQGARGEGATQLAPQRVRVTLRPGEPQQLQVRFLRAEGYPVDLYYLMDLSYSMKDDLERVRQLGHALLVRLQEVTHSVRIGFGSFVDKTVLPFVSTVPSKLRHPCPTRLERCQSPFSFHHVLSLTGDAQAFEREVGRQSVSGNLDSPEGGFDAILQAALCQEQIGWRNVSRLLVFTSDDTFHTAGDGKLGGIFMPSDGHCHLDSNGLYSRSTEFDYPSVGQVAQALSAANIQPIFAVTSAALPVYQELSKLIPKSAVGELSEDSSNVVQLIMDAYNSLSSTVTLEHSSLPPGVHISYESQCEGPEKREGKAEDRGQCNHVRINQTVTFWVSLQATHCLPEPHLLRLRALGFSEELIVELHTLCDCNCSDTQPQAPHCSDGQGHLQCGVCSCAPGRLGRLCECSVAELSSPDLESGCRAPNGTGPLCSGKGHCQCGRCSCSGQSSGHLCECDDASCERHEGILCGGFGRCQCGVCHCHANRTGRACECSGDMDSCISPEGGLCSGHGRCKCNRCQCLDGYYGALCDQCPGCKTPCERHRDCAECGAFRTGPLATNCSTACAHTNVTLALAPILDDGWCKERTLDNQLFFFLVEDDARGTVVLRVRPQEKGADHTQAIVLGCVGGIVAVGLGLVLAYRLSVEIYDRREYSRFEKEQQQLNWKQDSNPLYKSAITTTINPRFQEADSPTL
Regarding B1, the binding result with CD37 is reported as “binds”.

B2: ITGB7-HIS (protein, UniProt P26010 20-798)
chain: B1 chain
For B2, the binding result in the assay with CD37-FLAG is “binds”.
